This data set in a line: Membrane permeability in Caco-2 model. The format is in vitro ADME. The note with it: human, Caco-2, pH 7.4. As for the experimental part: Caco-2 cells were purchased from the American Model Tissue Cell Collection (Rockville, MD). The cell culture medium was modified Eagle's medium (MEM) containing 10% inactivated fetal bovine serum and 1% non-essential amino acids. […] The cells were incubated for 21-28 days after inoculation for transport experiments and the apparent permeability (Papp) of Lucifer Yellow was used to characterize and verify the compactness of the cell monolayer. […] After the incubation, dilute the samples on the apical side and basolateral side, and the concentrations of compounds on the apical and basolateral sides were detected by LC-MS/MS, and the concentrations of the compounds were quantified by standard curve.
In general terms: Caco-2 monolayers are a common model of the intestinal barrier.

A word on the Papp A→B: it is the apparent permeability from the apical to the basolateral side of a cell layer. In general, Papp B→A refers to how fast a substance crosses the layer from the basolateral side.

SMILES strings stand for the structures.

In the case of `CC(C)NCC(O)COc1ccc(CC(N)=O)cc1` (stereo not drawn) [Atenolol], where the note is “Caco2, 10 μM, 90 min”, the Papp A→B at 90 min, 10 µM amounted to 0.43 ×10⁻⁶ cm/s and the Papp B→A at 90 min, 10 µM is 0.18 ×10⁻⁶ cm/s. The efflux ratio at 90 min, 10 µM (Caco2, read-out: Efflux Ration) came to 0.42.

Values taken from patent publication US20250304587A1, “WEE1 INHIBITOR, PREPARATION THEREFOR AND USE THEREOF” (JIANGSU TASLY DIYI PHARMACEUTICAL CO., LTD., priority 2022, published 2025).
